# Source: PubChem BioAssay AID493014 (National Center for Advancing Translational Sciences (NCATS), 2011)
# Values joined by “and” are separate entries in the source; they are usually repeats but may differ in a detail not shown here. Equal values may be shown once. The list shows a part of the results. The main result of the screen is listed elsewhere. These columns were measured beside it and carry no call. Compounds called inactive in the main read-out are mostly missing here. Potencies come from curve fits of mixed quality, noted in brackets.
# Test: qHTS Assay to Find Inhibitors of Chronic Active B-Cell Receptor Signaling
# Details: ABC-DLBCL IkBa-CBG/CBR reporter, luminescence ratio (green luciferase fused to IkBa over red control in TMD8 lymphoma cells), 4 h
# Summary of the method: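 Cell line TMD8 (human ABC DLBCL), stably expressing tet-inducible CBG68-IkBa fusion and CBR; IMDM/0.5% FBS; cpd up to 46 uM; dox induction, 4 h, 37C/5% CO2; dual luminescence; green/red ratio; MG132 control.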
# [1] = measured here: CBR red luminescence, cell number
# [2] = measured here: IkBa-CBG green luminescence
smiles,measurement,setting,value
O=C(COC(=O)c1ccc(F)c(S(=O)(=O)N2CCOCC2)c1)NCc1ccc(F)cc1,AC50,[1],"3.26 µM [rising, full curve]"
COc1ccc(NC(=O)CSC2=C(C#N)C(c3ccco3)C3=C(CCCC3=O)N2)c(OC)c1 (centres undefined),AC50,[1],"6.51 µM [falling, partial curve, poor fit]"
CC(C)c1nc2sc3c(SCC(N)=O)ncnc3c2c2c1CCC2,AC50,[1],"31.6 µM [rising, single point]"
CCOC(=O)c1ccc(NC(=S)N2CCN(CCN=CC3=C(O)CC(c4ccccc4)CC3=O)CC2)cc1 (centres undefined),AC50,[1],"15.8 µM [falling, single point]"
CN=C1SC(CC(=O)Nc2ccccc2F)C(=O)N1/N=C/c1ccc(O)c(OC)c1 (centres undefined),AC50,[1],"3.55 µM [falling, single point]"
COc1cc(NC(=O)[C@@H](NC(=O)N2CCn3c2nc2ccccc23)C(C)C)cc(OC)c1,AC50,[1],"15.8 µM [falling, single point]"
CC(=O)/C(=N\Nc1ccc(Cl)cc1Cl)Sc1cccc2cccnc12,AC50,[1],"25.9 µM [falling, single point]"
same,AC50,[2],"6.51 µM [falling, single point]"
Cc1[nH]n(-c2ccccc2)c(=O)c1C=NCc1ccco1,AC50,[1],"3.98 µM [rising, single point]"
CCCc1cc(=O)oc2cc(OCC(=O)NCCCN3CCOCC3)c(Cl)cc12,AC50,[1],"7.94 µM [rising, partial curve, poor fit]"
O=C(NCCc1ccccc1)C1CCCN(S(=O)(=O)c2cccc3nsnc23)C1 (centres undefined),AC50,[1],"25.9 µM [rising, single point]"
C#CCOCCOCCOCCNc1nc(N2CCN(C(=O)[C@H]([C@@H](C)O)n3cc(CCCCN)nn3)CC2)nc(N2CCN(C(=O)[C@H](CCCCN)n3cc(CC(C)O)nn3)CC2)n1 (some centres undefined),AC50,[1],"0.517 µM [rising, partial curve, poor fit]"
CC(/C=N/n1c(COc2ccccc2)n[nH]c1=S)=C\c1ccccc1,AC50,[1],"35.5 µM [rising, single point]"
CCCS(=O)(=O)N1CCC(C(=O)NCCc2ccccc2)CC1,AC50,[1],"20.6 µM [rising, partial curve, poor fit]"
COc1ccc(C(=O)Nc2cc([N+](=O)[O-])ccc2N2CCCC2)cc1,AC50,[1],"11.2 µM [rising, partial curve, poor fit]"
Cc1cc2cc(C)c3nnc(SCC(=O)N4CCc5ccccc54)n3c2cc1C,AC50,[1],"5.62 µM [rising, single point]"
COc1ccc(CNC(=O)C[C@H]2C[C@H](C(=O)N(C(C)C)C(C)C)[C@@]3(C)c4[nH]c5ccc(Cl)cc5c4CCN3C2=O)cc1OC,AC50,[1],"29.1 µM [falling, single point]"
CCOc1ccc(/C=C2\SC(=S)N(CCC(=O)O)C2=O)cc1,AC50,[1],"0.0891 µM [falling, full curve, poor fit]"
same,AC50,[2],"8.91 µM [rising, partial curve, poor fit]"
Cc1cc(NS(=O)(=O)c2ccc(NC(=O)CCCOc3ccc(Cl)cc3)cc2)no1,AC50,[1],"28.2 µM [falling, single point]"
Cc1ccc(-n2c(C)cc(/C([O-])=C(/C(=S)Nc3ccc(F)c(Cl)c3)[n+]3ccccc3)c2C)cc1,AC50,[1],"6.51 µM [falling, partial curve]"
N=c1n(CCc2ccccc2)c2ccccc2n1Cc1ccccc1F,AC50,[1],"20.6 µM [falling, single point]"
O=C(CN1C(=O)NC2(CCOc3ccccc32)C1=O)c1ccc[nH]1 (centres undefined),AC50,[1],"20.6 µM [rising, single point]"
CC(C)(Oc1ccc(Cl)cc1)C(=O)Nc1ncccn1,AC50,[1],"35.5 µM [falling, single point]"
Cc1ccc(-n2c(Cn3nc(C(F)F)cc3C(F)F)n[nH]c2=S)cc1,AC50,[1],"3.26 µM [rising, partial curve, poor fit]"
O=C(Nc1ccon1)c1csc2ccccc12,AC50,[1],"1.46 µM [falling, full curve, poor fit]"
Cc1ccsc1C(=O)NNC(=S)NC1CCCCC1,AC50,[1],"10 µM [falling, partial curve]"
COc1cccc(-c2nc(CS(=O)CC(=O)NCCCOC(C)C)c(C)o2)c1 (centres undefined),AC50,[1],"29.1 µM [rising, single point]"
O=C(COC(=O)c1ccc(F)cc1)NCCCc1ccccc1,AC50,[1],"3.98 µM [falling, single point]"
c1ccc(OCCSc2nnnn2C2CCCCC2)cc1,AC50,[1],"2.24 µM [rising, full curve, poor fit]"
COc1cc(NC(=O)CCn2c(=S)oc3ccccc32)cc(OC)c1OC,AC50,[1],"1.58 µM [rising, partial curve, poor fit]"
Cc1ccccc1Nc1nc(-c2sc(NC(=O)c3ccco3)nc2C)cs1,AC50,[1],"18.4 µM [falling, partial curve, poor fit]"
CN(C(=S)Nc1ccc(F)cc1)C(c1ccccc1)c1ccccc1,AC50,[1],"35.5 µM [falling, single point]"
O=C(COc1cccnc1[N+](=O)[O-])Nc1cccc(Br)c1,AC50,[1],"4.61 µM [rising, partial curve, poor fit]"
COc1cc(OC)cc(C(=O)Nc2cccc(N3CCCC3)c2)c1,AC50,[1],"11.2 µM [falling, partial curve, poor fit]"
O=C(CSc1nnc(-c2ccncc2)n1Cc1ccco1)Nc1nc(-c2ccccc2)cs1,AC50,[1],"0.82 µM [falling, full curve, poor fit]"
O=C1NNC(=O)C2C3C=CC(C4CC34)C12 (centres undefined),AC50,[1],"29.1 µM [rising, single point]"
CC(/C=N/NC(=O)c1cccnc1)=C\c1ccco1,AC50,[1],"3.66 µM [falling, partial curve, poor fit]"
CCOC(=O)/C=C/C(=O)OCC(=O)NC(c1ccccc1)c1ccccc1,AC50,[1],"18.4 µM [falling, partial curve]"
C=CCN1C(=O)C(Cc2cccc(C)c2)SC1=Nc1ccc(C(=O)O)cc1 (centres undefined),AC50,[1],"29.1 µM [falling, single point]"
same,AC50,[2],"20.6 µM [rising, partial curve, poor fit]"
CCC(C)(C)NC(=O)C(c1ccc(C)cc1)N(Cc1ccco1)C(=O)Cn1nnc2ccccc21 (centres undefined),AC50,[1],"29.1 µM [rising, single point]"
NC(=O)c1ccccc1OCC(=O)NS(=O)(=O)c1ccc(Cl)cc1,AC50,[1],"32.6 µM [falling, single point]"
O=C(Nc1cccc(-c2cccc(Cl)c2)c1)C1CCN(Cc2ccccn2)CC1,AC50,[1],"17.8 µM [falling, single point]"
CCCCNC(=O)c1c[nH]c2ccc(S(=O)(=O)Nc3ccc(OCC)cc3)cc2c1=O,AC50,[1],"22.4 µM [rising, single point]"
Cc1cc(NC(=O)c2cccc(Oc3ccccc3)c2)n[nH]1,AC50,[1],"14.1 µM [falling, single point]"
Cc1cc(C(=O)N/N=C/c2cccc(OC(=O)c3ccco3)c2)n[nH]1,AC50,[1],"12.6 µM [falling, partial curve]"
C=C1C(C(=O)Nc2ccccc2)C1C(=O)Nc1ccccc1 (centres undefined),AC50,[1],"3.55 µM [rising, partial curve, poor fit]"
CN(Cc1ccco1)c1ncnc2ccc(-c3ccc4c(c3)OCO4)cc12,AC50,[1],"1.84 µM [falling, partial curve, poor fit] and 23.1 µM [falling, single point]"
CCSc1nnc(NC(=O)C(CC)(C(F)(F)F)C(F)(F)F)s1,AC50,[1],"18.4 µM [falling, single point]"
COc1ccc(CNc2ncnc3c2c(-c2ccccc2)cn3-c2ccccc2)cc1,AC50,[1],"3.98 µM [rising, full curve, poor fit]"
Fc1cccc(Cl)c1Cn1nnc2c(-n3ccnc3)ncnc21,AC50,[1],"18.4 µM [falling, partial curve, poor fit]"
O=C(O)c1cccc([N+](=O)[O-])c1C(=O)Nc1nc2ccccc2s1,AC50,[1],"11.2 µM [falling, partial curve, poor fit]"
CC(=O)c1ccc(NC(=O)CNCc2cccs2)cc1,AC50,[1],"7.94 µM [rising, partial curve, poor fit]"
Cc1ccc(Nc2nc(N/N=C/c3c[nH]c4ccccc34)nc(N3CCOCC3)n2)cc1,AC50,[1],"6.51 µM [falling, full curve]"
CCCc1cc(C(=O)NNC(=S)NC2CCCCC2)cs1,AC50,[1],"3.55 µM [falling, partial curve, poor fit]"
COc1ccc(-c2nc(CSCC(=O)N3CCC(C(N)=O)CC3)c(C)o2)cc1OC,AC50,[1],"23.1 µM [rising, partial curve, poor fit]"
Cc1nnc(SCC(=O)NCc2ccccc2F)c2nn(-c3ccc(Cl)cc3)c(C)c12,AC50,[1],"6.31 µM [falling, single point]"
Cc1cc(NC(=O)C2CCCCC2)n(-c2nc3ccccc3[nH]2)n1,AC50,[1],"0.146 µM [falling, full curve, poor fit]"
CCNc1nc2ccccc2[nH]1,AC50,[1],"0.092 µM [falling, full curve, poor fit]"
O=c1c2cc(-c3ccccc3)sc2ncn1/N=C/c1ccco1,AC50,[1],"3.55 µM [rising, partial curve, poor fit]"
CCCNC(=O)c1cc(-c2ccc(OC)cc2)on1,AC50,[1],"23.1 µM [falling, partial curve, poor fit]"
O=C1COc2ccc(C(=O)COC(=O)/C=C/c3cccc(F)c3)cc2N1,AC50,[1],"10 µM [rising, partial curve]"
COc1ccc(C(=O)NNC(=S)NC(=O)c2ccco2)cc1,AC50,[1],"11.2 µM [falling, partial curve, poor fit]"

# In a second layout: entries from further up
smiles	measurement	setting	value
O=C(CN1C(=O)NC2(CCOc3ccccc32)C1=O)c1ccc[nH]1 (centres undefined)	AC50	[1]	20.6 µM [rising, single point]
CC(C)(Oc1ccc(Cl)cc1)C(=O)Nc1ncccn1	AC50	[1]	35.5 µM [falling, single point]
O=C(COc1cccnc1[N+](=O)[O-])Nc1cccc(Br)c1	AC50	[1]	4.61 µM [rising, partial curve, poor fit]
C=CCN1C(=O)C(Cc2cccc(C)c2)SC1=Nc1ccc(C(=O)O)cc1 (centres undefined)	AC50	[2]	20.6 µM [rising, partial curve, poor fit]
